# The list shows a part of the results. This data set is noisy: repeats of one test often differ as much as different tests do.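 Free-swimming zebrafish larvae were assessed for O-bend response probability to dark flashes (naive: first five; training: remaining flashes across four 60-flash blocks; test: later 60-flash block) and for OMR turning toward alternating leftward/rightward LED motion. Six treated larvae were compared against sixty 0.1% DMSO controls; hits required |SSMD|≥2.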
# What was measured:
# Details in all cases: 10 µM; pre-incubation: 30-90 min
# [1] = tested on: Danio rerio larvae (5 dpf, TLF); test: OMR-Perf (SSMD vs DMSO vehicle); higher = higher than vehicle (e.g. higher dark-flash O-bend response probability, or better optomotor performance)
# [2] = tested on: Danio rerio larvae (5 dpf, TLF); test: Prob-Test (SSMD vs DMSO vehicle); higher = higher than vehicle (e.g. higher dark-flash O-bend response probability, or better optomotor performance)
# [3] = tested on: Danio rerio larvae (5 dpf, TLF); test: Prob-Naive (SSMD vs DMSO vehicle); higher = higher than vehicle (e.g. higher dark-flash O-bend response probability, or better optomotor performance)
# [4] = tested on: Danio rerio larvae (5 dpf, TLF); test: Prob-Train (SSMD vs DMSO vehicle); higher = higher than vehicle (e.g. higher dark-flash O-bend response probability, or better optomotor performance)
Compound,OMR-Perf [1],Prob-Test [2],Prob-Naive [3],Prob-Train [4]
O=C(O)c1cc(-c2ccccc2)nc2ccccc12 [Cinchophen],-0.451,-0.0183,-0.105,0.0346
CCN(CC)CCCCNc1ncc2cc(-c3cc(OC)cc(OC)c3)c(NC(=O)NC(C)(C)C)nc2n1,-0.575,-0.139,0.471,-0.367
CNCCC(Oc1ccc(C(F)(F)F)cc1)c1ccccc1.Cl (configuration not stated) [Fluoxetine HCl],-0.273,-0.208,-0.22,-0.0845
Cc1cn([C@@H]2C[C@@H](O)[C@H](CO)O2)c(=O)[nH]c1=O [Telbivudine],-0.365,-0.242,0.112,-0.37
CNCc1cc(-c2ccccc2F)n(S(=O)(=O)c2cccnc2)c1.O=C(O)/C=C/C(=O)O,-0.365,-0.232,-0.117,0.006
COCC[n+]1c2c(n(Cc3cnccn3)c1C)C(=O)c1ccccc1C2=O [YM155 (Sepantronium Bromide)],-0.00507,0.441,0.515,0.538
O=[N+]([O-])c1cn2c(n1)OC[C@@H](OCc1ccc(OC(F)(F)F)cc1)C2,0.341,0.464,0.292,-0.206
COc1cccc2c1C(=O)c1c(O)c3c(c(O)c1C2=O)C[C@@](O)(C(=O)CO)C[C@@H]3O[C@H]1C[C@H](N)[C@H](O[C@@H]2CCCCO2)[C@H](C)O1 [Pirarubicin],-0.3,-0.238,-0.0458,-0.656
CC[C@@H]1C(=O)N(C)c2cnc(Nc3ccc(C(=O)NC4CCN(C)CC4)cc3OC)nc2N1C1CCCC1,0.473,0.0457,-0.463,-0.692
CCCCC[C@H](O)/C=C/[C@H]1[C@H](CCCCCCC(=O)O)C(=O)C[C@@H]1O [Alprostadil],-0.545,-1.72,-0.766,-2.05
COc1ccc(C[C@@H]2c3cc(OC)c(OC)cc3CC[N@+]2(C)CCC(=O)OCCCCCOC(=O)CC[N@@+]2(C)CCc3cc(OC)c(OC)cc3[C@H]2Cc2ccc(OC)c(OC)c2)cc1OC.O=S(=O)([O-])c1ccccc1.O=S(=O)([O-])c1ccccc1 [Cisatracurium Besylate],0.285,-0.00434,-0.217,0.645
O=C(NC(Cc1cc(=O)[nH]c2ccccc12)C(=O)O)c1ccc(Cl)cc1 (configuration not stated) [Rebamipide],-0.154,0.315,-0.337,-0.0496
O=P(O)(O)C(O)(Cn1ccnc1)P(=O)(O)O [Zoledronic Acid],0.416,-0.275,-0.262,-0.5
O=c1ncnc2[nH][nH]cc1-2 [Allopurinol],-0.115,0.455,0.357,0.418
CN(C)CCCSC(=N)N.Cl.Cl [Dimaprit 2HCl],-0.151,0.419,0.457,0.178
O=P(O)(O)C(O)(Cc1cccnc1)P(=O)(O)[O][Na] (configuration not stated) [Risedronate sodium],0.0047,0.293,0.134,0.233
Cc1ccc(Cl)cc1N(CC(=O)Nc1c(F)cccc1F)S(C)(=O)=O,0.0676,0.209,0.448,-0.0363
Cc1onc(-c2c(Cl)cccc2Cl)c1C(=O)N[C@@H]1C(=O)N2[C@@H](C(=O)[O][Na])C(C)(C)S[C@@H]12.O [Dicloxacillin Sodium],1.02,-0.446,-0.256,-0.00477
O=C(c1ccc(F)cc1)N1CCC[C@H](c2nc(-c3ccc(F)cc3)no2)C1,-2.42,-1.04,-2.7,-1.98
CC(C)C[C@@H](C(=O)N[C@H](C(=O)OC1CCCC1)c1ccccc1)[C@H](O)C(=O)NO [Tosedostat (CHR2797)],-0.0257,-0.00405,-0.235,-0.479
CO[C@H]1O[C@H]2O[C@@]3(C)CC[C@H]4[C@@H](C)CC[C@@H]([C@@H]1C)[C@@]24OO3 [Artemether],-0.455,0.563,-0.0101,-0.0621
CC(C)OC(=O)OCOP(=O)(CO[C@H](C)Cn1cnc2c(N)ncnc21)OCOC(=O)OC(C)C.O=C(O)/C=C\C(=O)O [Tenofovir Disoproxil Fumarate],-0.00134,0.369,0.255,-0.186
CC(C)CC(N)=O [Isovaleramide],-0.0499,0.338,0.585,0.44

# In the list so far, these contain a CF3 group:
Compound,OMR-Perf [1],Prob-Test [2],Prob-Naive [3],Prob-Train [4]
CNCCC(Oc1ccc(C(F)(F)F)cc1)c1ccccc1.Cl (configuration not stated) [Fluoxetine HCl],-0.273,-0.208,-0.22,-0.0845
O=[N+]([O-])c1cn2c(n1)OC[C@@H](OCc1ccc(OC(F)(F)F)cc1)C2,0.341,0.464,0.292,-0.206

# Source: the supplement of paper PMC10727501
